Data taken from patent US7259004B1, “Endophytic streptomycetes from higher plants with biological activity” (Montana State University, priority 2002, dated 2007).
Some entries share one result that the patent states for a list of compounds.

Tested on: B. subtilis 1A757
Assay type: cell-based
Conditions: Bacillus subtilis and Staphylococcus aureus; 20 micrograms per well sheared salmon sperm DNA

Compound | increase of MICs when DNA was added [fold]
kakadumycin A | ≥ 30
CS[C@H]1SC[C@H]2C(=O)N(C)[C@@H](C(C)C)C(=O)OC[C@@H](NC(=O)c3cnc4ccccc4n3)C(=O)N[C@@H](C)C(=O)N(C)[C@@H]1C(=O)N(C)[C@@H](C(C)C)C(=O)OC[C@@H](NC(=O)c1cnc3ccccc3n1)C(=O)N[C@@H](C)C(=O)N2C [Echinomycin, reference compound] | ≥ 30
